[ ]: non-standard residue; d: D form. The star is where a group is joined. Acm = CC(=O)NC*; Mpa = O=C(O)CCS
Assay: general procedure: solution-phase peptide synthesis; azide method (isoamylnitrite/HCl); DCC/HOBt
Conditions: acetate

| Substance | crude HPLC purity (coupling step, HPLC, Lichrospher RP-18, UV detector at 220 nm) | step yield (coupling step) | final HPLC purity (oxidative folding step, UV 220 nm, one disulfide bridge, sequence written open) |
| --- | --- | --- | --- |
| Mpa(Acm)-Tyr-Phe-Gln-Asn-Cys(Acm)-Pro-D-Arg(HCl)-Gly-NH2 | 94.5% | 84.9% |  |
| [Mpa](Acm)YFQNC(Acm)P-OH |  | 85% |  |
| Mpa-Tyr-Phe-Gln-Asn-Cys-Pro-D-Arg-Gly-NH2 |  |  | >98,5% |

Source: patent US5985835A (priority 1997, dated 1999)
